One molecule from doi:10.1101/2022.03.23.485504 can be followed below.

Protein sequences, listed by entry. Tags and fused reporters are not part of them.
UniProt P61956: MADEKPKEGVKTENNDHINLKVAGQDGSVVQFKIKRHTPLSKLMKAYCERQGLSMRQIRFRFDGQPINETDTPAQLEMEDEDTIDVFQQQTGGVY

This assay deals with recombinant SUMO2 (rSUMO2) (human) (UniProt P61956). As to the kind of experiment: cross-linking.

Results are given in words; binding and its absence hold for the method and conditions named. Some entries that bind do so weakly or less than the wild type.

B1: recombinant SUMO4-WT (rSUMO4-WT) (protein, UniProt Q6EEV6 1-95)
chain: MANEKPTEEVKTENNNHINLKVAGQDGSVVQFKIKRQTPLSKLMKAYCEPRGLSVKQIRFRFGGQPISGTDKPAQLEMEDEDTIDVFQQPTGGVY
B1: the binding result was “binds weakly”.
